In patent publication US10265297B2 (Council of Scientific & Industrial Research, priority 2016, dated 2019):
Some entries share one result that the patent states for a list of compounds.

Assay: Oral pharmacokinetics in male Sprague Dawley rats
Format: in vivo
Details: oral dosing of extract (unformulated, 500 mg·kg^−1)

SMILES | serum levels (below LLOQ) at most of the time points
COc1c(O)cc2oc(-c3ccc(O)c(O)c3)c(OC)c(=O)c2c1O [Compound K008, 5,7,3′,4′-tetrahydroxy-3,6-dimethoxy-flavone] | < 1 ng/mL
COc1c(-c2ccc(O)c(O)c2)oc2cc3c(c(O)c2c1=O)OCO3 [Compound K007, 5,3′,4′-trihydroxy-3-methoxy-6,7-methylenedioxy-flavone] | < 1 ng/mL
